In patent publication US11944628B2, “Methods for the use of low-dose immune modulators transiently for treating patients undergoing protein replacement therapy” (Duke University, priority 2017, dated 2024):

Tested on: anti-rhGAA IgG antibodies
Assay: Anti-rhGAA IgG antibody titers over time (ELISA, confirmed by radioimmunoprecipitation) in Pompe disease patients on ERT with TLD-MTX or on ERT monotherapy (comparators)
Assay type: in vivo, human
Experimental: Methotrexate at 0.4 mg/kg body weight was administered subcutaneously (or orally if subcutaneous administration was not possible) on three consecutive days/MTX cycle/infusion; with the first three ERT infusions (i.e., on Days 0, 14, and 28 for patients infused EOW) for a total of 3 cycles. On the day of ERT infusion, methotrexate was administered 15 minutes (if subcutaneous) or 1 hour (if oral) before infusion initiation and again on the following 2 days. To exemplify the schedule, in a patient receiving ERT infusion EOW, methotrexate was administered on Days 0, 1, and 2 (first cycle); Days 14, 15, and 16 (second cycle), and Days 28, 29, and 30 (third cycle). As stated earlier, the dose and frequency of ERT could be increased at the discretion of the treating physician, based on patients' clinical and IAR status, in which case methotrexate cycles were adjusted accordingly (see FIG. 2 for details).
Anti-rhGAA IgG antibodies were determined by Sanofi Genzyme (Framingham, MA, USA) using enzyme-linked immunosorbent assays and confirmed using radioimmunoprecipitation as described previously (Kishnani et al. (2006) J. Pediatr. 149:89-97). Antibody analyses were recommended to be performed at Days −1, 28, 56, 84, 112, 140, 168, 196, 224, 252, 280, 308, 336, and 364.
rhGAA IgG titers were determined over time. Patients were classified into HSAT (≥51,200 on ≥2 occasions at or beyond 6 months on ERT), sustained intermediate titer (SIT) (≥12,800 and <51,200 within the first year of ERT), and low titer (LT; ≤6,400 within the first year of ERT) groups based on the longitudinal anti-rhGAA IgG titers. […] Medians and ranges were determined for baseline, peak, and last titers, although our focus was on longitudinal titers through time because sustained titers affect clinical response.
The comparators received rhGAA alone. The GAA variant data and age at ERT initiation were compared with our cohort of TLD-MTX recipients. Immune responses over time were classified into HSAT, SIT, and LT as defined above, and time to seroconversion, peak titers, titers at Weeks 12, 24, and 52 were compared with our present cohort of TLD-MTX recipients.

Compound: CN(Cc1cnc2nc(N)nc(N)c2n1)c1ccc(C(=O)N[C@@H](CCC(=O)O)C(=O)O)cc1 [methotrexate]
- Seroconversion week (median time to seroconversion) (LT group, IOPD): 6 weeks
- Time since ERT initiation (median time of peak titer) (LT group, IOPD): 20.5 weeks
- Time on ERT (peak titer), median (median of 14 IOPD patients on TLD-MTX protocol): 20.5 weeks

Compound: Alglucosidase alfa [ERT monotherapy]
- Time since ERT initiation (median time of peak titer) (HSAT group, IOPD): 82 weeks
- Time since ERT initiation (median time of peak titer) (LT group, IOPD): 38 weeks
- Time since ERT initiation (median time of peak titer) (SIT group, IOPD): 12 weeks
